These results are taken from PubChem BioAssay AID493014 (National Center for Advancing Translational Sciences (NCATS), 2011).

The assay can be described thus: qHTS Assay to Find Inhibitors of Chronic Active B-Cell Receptor Signaling. To be noted: ABC-DLBCL IkBa-CBG/CBR reporter, luminescence ratio (green luciferase fused to IkBa over red control in TMD8 lymphoma cells), 4 h. Put shortly:
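Doxycycline induced both beetle luciferases in TMD8 lymphoma cells; IKK-driven degradation limits the IkappaBalpha-fused green signal, while red luminescence normalises for cell number and nonspecific effects. Compounds tested up to 46 uM, 4 hrs.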
(In general: Quantitative high-throughput screening tests each substance at several concentrations.)

[1] abbreviates: measured here: CBR red luminescence, cell number.
Where [2] appears, read: measured here: IkBa-CBG green luminescence.

This is one part of the list. Further columns of the screen follow, without active or inactive calls. Most of these compounds were active or inconclusive in the main read-out, so they are no random draw. The note in brackets gives the kind of curve behind each potency; many fits are weak.

As a reminder, the AC50 is the concentration at which the activity in the assay is half-maximal. Turning to `Cc1ccc(NC(=O)CN(C)C(=O)COC(=O)/C=C/c2cccs2)cc1`, under setting [1], the AC50 was 1.3 µM [rising, full curve, poor fit].

In the case of `Cc1cccc(C(=O)Nc2scc(CC(C)C)c2C(=O)O)c1`, the AC50 under setting [1] is 11.6 µM [falling, partial curve]. `COc1ccc(C2CC(c3cccs3)=NN2S(C)(=O)=O)cc1OC` (centres undefined): the AC50 under setting [1] was 35.5 µM [rising, single point].

Take `Cc1[nH]n(C)c(=O)c1C(=O)c1c(-c2ccccc2Cl)noc1C`: the AC50 under setting [1] was 5.62 µM [falling, full curve, poor fit]. Turning to `Cc1ccc(C(=O)Nc2ccccc2C(=O)NC(CC(=O)O)C(=O)O)cc1` (centres undefined), under setting [1], the concentration at half-maximal activity (AC50) was 11.2 µM [falling, single point]. Same read-out and setting: to `Cc1nc(N)sc1N=Nc1ccc(F)cc1` belongs 32.6 µM [falling, single point]. On to `O=C(CSc1ccc(-c2ccco2)nn1)N1CCCCCC1`, for which the AC50 was 8.91 µM [falling, partial curve] under setting [1] and 14.1 µM [rising, partial curve, poor fit] under setting [2].

Turning to `Cc1cc(C)cc(NC(=S)N(Cc2ccc(Cl)cc2)Cc2ccc(C(=O)O)cc2)c1`, the AC50 under setting [2] was 12.6 µM [rising, partial curve, poor fit]. Take `COc1ccc(C2(CNC(C)=O)CCOCC2)cc1OC`: the AC50 under setting [1] is 0.517 µM [rising, full curve, poor fit]. For `CCC(=O)N1CCN(c2ccc(NC(=O)c3cc4ccccc4o3)cc2Cl)CC1`, the AC50 by setting is: under setting [1], 29.1 µM [falling, single point]; under setting [2], 29.1 µM [rising, single point].

For `COC1CC(C)NC(=S)N1` (centres undefined), under setting [1], the AC50 is 3.16 µM [falling, partial curve, poor fit]. The same measure, in the same setting: to `Cc1ccc(S(=O)(=O)N(C)c2ccc(C(=O)Nc3ccc(C)cn3)cc2)cc1` belongs 2.59 µM [falling, partial curve, poor fit]; to `Fc1ccc2cnc(C3=CCCCC3)cc2c1`, 32.6 µM [rising, partial curve, poor fit]; to `CCOC(=O)c1c(S(=O)(=O)N2CCCC(C(=O)Nc3cc(C)ccn3)C2)c(C)n(C)c1C` (centres undefined), 25.1 µM [falling, single point]. Take `COc1cccc(CNC(=O)N2CCN(c3ccccc3Cl)CC2)c1`: the AC50 under setting [1] was 7.94 µM [falling, partial curve]. `COc1ccc(OC)c(C(c2nnnn2CCc2ccccc2)N2CCN(c3ccccc3)CC2)c1` (centres undefined): the AC50 under setting [1] is 7.08 µM [rising, full curve, poor fit].

Consider `COc1ccc(C(=O)Nc2nccs2)cc1`, for which, under setting [1], the AC50 was 15.8 µM [falling, single point]. As to `Cc1cccc(-n2cc(-c3ccccc3)c3c(NC4CCCC4)ncnc32)c1`, under setting [1], the AC50 was 12.6 µM [rising, partial curve]. On to `CC(C)N(C)C1CCN(S(=O)(=O)c2ccc(-c3ccc(=O)[nH]n3)s2)CC1`, for which the AC50 under setting [1] was 5.62 µM [falling, partial curve, poor fit]. Take `CSc1nc(C)c2c(n1)N(c1ccc(O)cc1)CC2`: under setting [1], the AC50 was 1.26 µM [rising, full curve, poor fit]. `Nc1ncnc2c1ncn2[C@@H]1O[C@H](COP(=O)(O)OP(=O)(O)OP(=O)(O)O)[C@@H](O)[C@H]1O`: the AC50 under setting [2] is 18.4 µM [falling, partial curve]. As to `C[C@]12CCC3C(CC[C@H]4CCCC[C@]34C)C1CC[C@@]2(O)CNCCO` (some centres undefined), under setting [1], the AC50 is 0.447 µM [rising, full curve]. For the molecule `COc1ccccc1NCC(=O)N/N=C/c1sccc1C`, the AC50 under setting [1] is 2.51 µM [falling, partial curve, poor fit].

Regarding `CC(=O)Nc1ccc(C(=O)OCC(=O)c2cccc([N+](=O)[O-])c2)cc1`, under setting [1], the half-maximal activity concentration (AC50) is 29.1 µM [rising, single point].

For the molecule `Cc1cccc(C(=O)NNC(=O)c2ccc(Br)cc2)c1`, under setting [1], the AC50 is 12.6 µM [falling, single point]. In the case of `COc1ccc(C(=S)N2CCOCC2)cc1OC(=O)c1ccc(C)cc1`, under setting [1], the AC50 is 35.5 µM [rising, single point]. Still for that read-out and setting: next, `O=C1c2cccc(OCC(=O)N3CCCc4ccccc43)c2CCN1Cc1ccc(Br)cc1`: 13 µM [falling, partial curve]; `C=CS(=O)(=O)c1ccc(Oc2ccc(S(=O)(=O)C=C)cc2)cc1`: 1.46 µM [falling, full curve]. For the molecule `Cc1cc(C)nc(/N=C(\N)Nc2cccc(OCc3ccccc3)c2)n1`, the concentration at half-maximal activity (AC50) reads like this: under setting [1], 15.8 µM [rising, single point]; under setting [2], 22.4 µM [falling, single point]. For `CCOC(=O)C1CCN(C(=O)C2(NC(=O)Nc3cccc(F)c3)CCCCC2)CC1`, under setting [1], the AC50 is 3.98 µM [rising, full curve, poor fit].

For the molecule `CNC(=S)N/N=C(\C)c1ccc2c(c1)OCCO2`, under setting [2], the AC50 was 29.1 µM [falling, partial curve, poor fit].

For the molecule `CCOc1ccc2nc(NC(=O)C3CCCN(S(=O)(=O)c4c(C)noc4C)C3)sc2c1` (centres undefined), the AC50 under setting [1] is 11.2 µM [falling, partial curve, poor fit]. Same read-out and setting: to `O=C(Nc1ccc(Br)cc1)N1CCCCC1` belongs 15.8 µM [falling, single point]; to `CC1(C)C(C=C(Cl)Cl)C1C(=O)N(Cc1cccc(Cl)c1)C1CCS(=O)(=O)C1` (centres undefined), 32.6 µM [falling, single point]; to `N#Cc1cc(C(=O)c2ccccc2OCC(=O)Nc2ccccc2Cl)cn(C2CCCCC2)c1=O`, 5.17 µM [falling, partial curve, poor fit].

As to `Cc1ccoc1C(=O)Nc1ccc2ccccc2c1`, the AC50 under setting [1] was 8.91 µM [falling, partial curve].

In the case of `COc1cccc2cc(C(C)N(CCCN3CCOCC3)C(=S)Nc3cc(C)cc(C)c3)oc12` (centres undefined), the AC50 under setting [1] was 31.6 µM [falling, single point]. Consider `C/C(=N/NC(=O)c1ccccc1)C(=O)O`, for which the AC50 under setting [1] is 14.1 µM [falling, single point].

For the molecule `CCOc1cc(C(=O)Nc2ccncc2)cc(OCC)c1OCC`, under setting [1], the AC50 is 22.4 µM [falling, partial curve]. On the same count and under the same terms, to `COc1ccc2nc(NC(=O)Nc3ccccc3)sc2c1` belongs 14.1 µM [falling, partial curve]. As to `CCn1cc(Cl)c(C(=O)N2N=C(c3ccc4ccccc4c3)CC2c2ccccc2O)n1` (centres undefined), the AC50 reads like this: under setting [1], 29.1 µM [falling, single point]; under setting [2], 23.1 µM [falling, single point]. With `c1ccc(NC2=Nc3cccc4cccc2c34)cc1`, the AC50 under setting [1] was 12.6 µM [falling, single point]. As for `COc1cc(/C=C/C(=O)OC(C)C(=O)NC2CCCCC2C)cc(Cl)c1OC` (centres undefined), under setting [1], the AC50 was 3.66 µM [rising, full curve, poor fit].

With `COc1ccccc1CNC(=O)c1cc(-c2ccccc2)n(Cc2cc(C)no2)n1`, the AC50 under setting [1] was 29.1 µM [falling, partial curve, poor fit]. In the case of `CCC(C(=O)O/N=C(\N)c1cccc(C)c1)c1ccccc1` (centres undefined), the AC50 under setting [1] is 16.4 µM [rising, single point]. As for `NC(=S)Nc1nc2ccccc2[nH]c1=O`, the AC50 under setting [1] is 2.06 µM [rising, partial curve, poor fit]. Consider `CCc1cc(C(=O)c2ccc(OC)cc2)c(NC(=O)CN2CCCCC2)s1`, for which the AC50 under setting [1] is 5.01 µM [rising, full curve]. Same read-out and setting: next, `Cc1ccccc1N1CCN(C2CCCN(C(=O)c3noc4c3CCCC4)C2)CC1` (centres undefined): 35.5 µM [falling, single point]; `CNC(=O)NC(=O)C(C)OC(=O)c1ccc(Cl)c(S(=O)(=O)Nc2ccc(F)cc2)c1` (centres undefined): 35.5 µM [rising, single point]. The same measure, in the same setting: next, `O=C(NCc1ccc(Cl)cc1)c1ccc(COCC(F)(F)F)o1`: 2.91 µM [falling, partial curve, poor fit]. As for `Cc1cc(/C=N/NC(=O)c2ccc(O)cc2)c(C)n1C1CC1`, the AC50 under setting [1] was 2.51 µM [falling, full curve]. `CCN(CC)C(=O)CSc1nc2c(sc(=S)n2-c2ccccc2)c(=O)n1Cc1ccco1`: the AC50 under setting [1] was 0.259 µM [falling, full curve, poor fit]. As to `NNc1cc(C(=O)O)ccc1Cl`, under setting [1], the AC50 was 10 µM [rising, partial curve, poor fit]. As for `CCn1cc(C(=O)NCc2ccccc2OC)c(=O)c2cc(S(=O)(=O)N(C)C)ccc21`, the AC50 under setting [1] is 2.06 µM [rising, partial curve, poor fit]. Still for that read-out and setting: to `CCOC(=O)N1CCN(C(=O)c2nc3ccccc3s2)CC1` belongs 29.1 µM [falling, single point]; to `CCOC(=O)CSc1nc(C2CC2)nc2ccccc12`, 22.4 µM [falling, single point]. For the molecule `COc1ccc(CCNC(=O)CCCc2ccccc2)cc1OC`, the AC50 runs as follows: under setting [1], 35.5 µM [falling, single point]; under setting [2], 35.5 µM [rising, single point]. Consider `CC(=O)N1N=C(C)CC1c1ccc(OCc2ccccc2)cc1` (centres undefined), for which the AC50 under setting [1] was 6.51 µM [rising, partial curve, poor fit]. Same read-out and setting: to `Cc1ccc2nc3c(c(N)c2c1)CCN3c1ccccc1` belongs 5.62 µM [rising, partial curve, poor fit]; to `O=C1/C(=C/c2ccncc2)CCC/C1=C\c1ccncc1`, 12.6 µM [falling, partial curve, poor fit]; to `CCOC(=O)C1=C(C)NC2=C(C(=O)CCC2)C1c1ccc(N(C)C)cc1` (centres undefined), 13 µM [rising, single point]. Same read-out and setting: to `CCc1ccc(/C=N/Nc2ncnc3nc[nH]c23)cc1` belongs 35.5 µM [falling, single point]; to `COCCCNCCCCOc1ccc(Br)cc1Cl`, 18.4 µM [falling, partial curve, poor fit]; to `Cc1cc(C)c2cc(C(=O)Nc3ccc(C)c(F)c3)[nH]c2c1`, 0.794 µM [rising, full curve, poor fit].
